PubChem BioAssay AID686943, Drosophila RNAi Screening Center, 2013

Screen: 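Fly genes whose loss alters ERK activation after insulin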 (primary screen)
Cell system: Drosophila S2R+ haemocyte-like cells expressing YFP-tagged ERK (Rolled)
Reagents: long dsRNA against Drosophila genes
Challenge: insulin stimulation versus unstimulated cells; dose and duration not given
Measurement: 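Antibody staining for doubly phosphorylated ERK divided by ERK-YFP signal, as plate z-scores, in insulin-treated and untreated cells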
Direction: replicate 1, z-score of dpERK with insulin: higher = more active ERK per ERK-YFP after insulin
The screen tested about 23,000 reagents; this is a random part of those that have a named target and a result. 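Extra replicates exist only for a retested subset of genes; insulin dose and duration not given; both raised and lowered dpERK matter.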 Not all columns of the deposit are shown. Not given: the amount of reagent, the time to read-out.

For chif [DRSC03508], how do the results read?
replicate 1, z-score of dpERK with insulin: 0.35

For U3-55K [DRSC05982], what was measured?
replicate 1, z-score of dpERK with insulin: 0.56

Which result is listed for CG17780 [DRSC15265]?
replicate 1, z-score of dpERK with insulin: -0.74

How did the screen score CG1409 [DRSC17910]?
replicate 1, z-score of dpERK with insulin: -1.04

What is on record for Desat1 [DRSC16668]?
replicate 1, z-score of dpERK with insulin: -1.84

With Hinfp [DRSC18484], what was measured?
replicate 1, z-score of dpERK with insulin: 0

What did the screen give for eIF3m [DRSC07142]?
replicate 1, z-score of dpERK with insulin: -1.13

What did the screen give for Arc42 [DRSC14340]?
replicate 1, z-score of dpERK with insulin: 0.36

How did the screen score Arc42 [DRSC15627]?
replicate 1, z-score of dpERK with insulin: 0.3

What did the screen give for Npc2a [DRSC00698]?
replicate 1, z-score of dpERK with insulin: 0.22

What did the screen give for Ctr1C [DRSC15089]?
replicate 1, z-score of dpERK with insulin: 0.44

With mahe [DRSC17755], how do the results read?
replicate 1, z-score of dpERK with insulin: -1.11

What is on record for CG5866 [DRSC15900]?
replicate 1, z-score of dpERK with insulin: -0.88

For Cyp316a1 [DRSC11130], what was measured?
replicate 1, z-score of dpERK with insulin: -0.32

For CG4766 [DRSC17736], what was measured?
replicate 1, z-score of dpERK with insulin: 1.6

What did the screen give for CNT2 [DRSC07073]?
replicate 1, z-score of dpERK with insulin: 0.97

How did the screen score Klp98A [DRSC16724]?
replicate 1, z-score of dpERK with insulin: 0.43

For Klp98A [DRSC21834], how do the results read?
replicate 1, z-score of dpERK with insulin: 1

How did the screen score CG10211 [DRSC02027]?
replicate 1, z-score of dpERK with insulin: -1.75

Which result is listed for Mef2 [DRSC07468]?
replicate 1, z-score of dpERK with insulin: 0.68

With Rpn13R [DRSC18404], what was measured?
replicate 1, z-score of dpERK with insulin: -0.89

For CG33777 [DRSC08107], what does the deposit list?
replicate 1, z-score of dpERK with insulin: -0.59

Which result is listed for CG8060 [DRSC07064]?
replicate 1, z-score of dpERK with insulin: -0.64

For CG15059 [DRSC19633], how do the results read?
replicate 1, z-score of dpERK with insulin: -0.03

For asRNA:CR43426 [DRSC11587], what does the deposit list?
replicate 1, z-score of dpERK with insulin: -0.09

For Tm2 [DRSC16887], what does the deposit list?
replicate 1, z-score of dpERK with insulin: -1.52

With Lrt [DRSC06045], how do the results read?
replicate 1, z-score of dpERK with insulin: 0.72

Which result is listed for Pbgs [DRSC09718]?
replicate 1, z-score of dpERK with insulin: 1.42

How did the screen score P5CDh1 [DRSC11801]?
replicate 1, z-score of dpERK with insulin: -0.18

With Trs23 [DRSC03190], what was measured?
replicate 1, z-score of dpERK with insulin: 0.78

With CG8299 [DRSC07139], what does the deposit list?
replicate 1, z-score of dpERK with insulin: -0.32
